Test results from PMC9999558.
These are yes or no findings as the source states them, for the method shown. In cells and extracts the contact can be indirect. Some binding calls cover weakened binding; strength is not graded here.

The chains behind the UniProt entries cited, without tags or fusion partners. Where a name states a change or a piece, a line headed by the entry shows the natural chain unless it says otherwise.
UniProt Q9BYW2: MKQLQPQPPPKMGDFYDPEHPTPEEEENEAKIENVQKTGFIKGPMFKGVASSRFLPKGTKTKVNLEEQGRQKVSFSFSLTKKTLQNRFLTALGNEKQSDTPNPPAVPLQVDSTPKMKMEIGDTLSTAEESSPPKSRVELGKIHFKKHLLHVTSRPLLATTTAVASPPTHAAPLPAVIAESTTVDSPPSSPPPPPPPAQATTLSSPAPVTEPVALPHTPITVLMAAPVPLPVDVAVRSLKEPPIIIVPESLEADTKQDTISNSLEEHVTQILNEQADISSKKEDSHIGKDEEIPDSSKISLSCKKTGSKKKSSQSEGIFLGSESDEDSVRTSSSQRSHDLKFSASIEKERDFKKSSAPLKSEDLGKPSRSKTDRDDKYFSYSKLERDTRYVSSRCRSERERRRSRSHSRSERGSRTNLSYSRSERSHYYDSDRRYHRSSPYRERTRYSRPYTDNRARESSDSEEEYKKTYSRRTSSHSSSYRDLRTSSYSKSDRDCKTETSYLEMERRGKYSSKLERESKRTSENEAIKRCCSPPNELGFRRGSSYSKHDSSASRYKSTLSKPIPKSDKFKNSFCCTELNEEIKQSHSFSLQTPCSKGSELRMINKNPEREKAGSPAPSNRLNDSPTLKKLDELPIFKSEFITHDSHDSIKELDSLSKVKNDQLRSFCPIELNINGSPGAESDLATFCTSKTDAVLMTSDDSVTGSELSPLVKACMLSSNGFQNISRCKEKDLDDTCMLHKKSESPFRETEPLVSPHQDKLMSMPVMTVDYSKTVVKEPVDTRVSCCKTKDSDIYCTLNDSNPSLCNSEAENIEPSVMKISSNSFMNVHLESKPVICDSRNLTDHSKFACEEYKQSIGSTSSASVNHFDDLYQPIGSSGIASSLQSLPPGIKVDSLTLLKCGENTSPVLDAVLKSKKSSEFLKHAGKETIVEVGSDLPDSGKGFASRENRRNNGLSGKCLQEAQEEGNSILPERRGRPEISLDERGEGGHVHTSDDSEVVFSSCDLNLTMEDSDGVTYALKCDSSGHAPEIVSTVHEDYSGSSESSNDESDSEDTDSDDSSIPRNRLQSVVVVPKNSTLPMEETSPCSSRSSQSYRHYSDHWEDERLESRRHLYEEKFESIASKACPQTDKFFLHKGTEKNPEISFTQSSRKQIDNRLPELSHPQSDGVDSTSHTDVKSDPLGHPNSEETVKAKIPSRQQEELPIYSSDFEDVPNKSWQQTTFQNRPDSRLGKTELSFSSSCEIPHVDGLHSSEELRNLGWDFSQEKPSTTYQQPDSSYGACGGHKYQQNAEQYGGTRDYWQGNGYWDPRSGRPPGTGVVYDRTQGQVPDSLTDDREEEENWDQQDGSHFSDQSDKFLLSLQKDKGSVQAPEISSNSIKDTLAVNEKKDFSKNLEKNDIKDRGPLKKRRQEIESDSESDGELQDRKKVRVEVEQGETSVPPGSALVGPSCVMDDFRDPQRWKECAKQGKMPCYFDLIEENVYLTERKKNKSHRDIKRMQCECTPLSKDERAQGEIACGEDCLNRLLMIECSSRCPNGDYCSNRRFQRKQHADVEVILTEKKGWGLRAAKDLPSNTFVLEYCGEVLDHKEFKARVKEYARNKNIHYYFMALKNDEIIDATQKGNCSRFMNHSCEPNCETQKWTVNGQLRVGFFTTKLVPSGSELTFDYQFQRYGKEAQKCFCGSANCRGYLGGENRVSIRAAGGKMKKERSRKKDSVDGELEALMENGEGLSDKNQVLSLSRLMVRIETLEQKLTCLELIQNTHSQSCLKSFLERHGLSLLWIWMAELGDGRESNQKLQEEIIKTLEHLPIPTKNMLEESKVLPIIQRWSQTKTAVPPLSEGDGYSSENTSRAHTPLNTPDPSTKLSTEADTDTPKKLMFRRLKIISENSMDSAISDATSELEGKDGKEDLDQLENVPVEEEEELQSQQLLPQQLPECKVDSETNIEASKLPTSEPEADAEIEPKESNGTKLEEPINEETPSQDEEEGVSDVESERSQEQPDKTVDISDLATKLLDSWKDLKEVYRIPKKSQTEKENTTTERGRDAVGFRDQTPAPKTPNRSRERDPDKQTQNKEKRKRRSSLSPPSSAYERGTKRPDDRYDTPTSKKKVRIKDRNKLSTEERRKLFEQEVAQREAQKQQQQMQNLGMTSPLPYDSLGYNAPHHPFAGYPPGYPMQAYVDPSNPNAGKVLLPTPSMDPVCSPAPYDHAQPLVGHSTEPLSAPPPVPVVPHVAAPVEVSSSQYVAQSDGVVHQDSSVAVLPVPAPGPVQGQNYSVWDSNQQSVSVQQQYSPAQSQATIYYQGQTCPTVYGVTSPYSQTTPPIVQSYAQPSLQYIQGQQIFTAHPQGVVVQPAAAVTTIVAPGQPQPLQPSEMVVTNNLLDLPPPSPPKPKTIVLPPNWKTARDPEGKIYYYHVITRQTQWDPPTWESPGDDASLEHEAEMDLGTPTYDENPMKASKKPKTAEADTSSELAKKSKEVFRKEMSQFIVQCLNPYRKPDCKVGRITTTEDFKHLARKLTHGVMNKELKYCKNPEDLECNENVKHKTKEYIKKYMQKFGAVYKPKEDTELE
UniProt Q00987: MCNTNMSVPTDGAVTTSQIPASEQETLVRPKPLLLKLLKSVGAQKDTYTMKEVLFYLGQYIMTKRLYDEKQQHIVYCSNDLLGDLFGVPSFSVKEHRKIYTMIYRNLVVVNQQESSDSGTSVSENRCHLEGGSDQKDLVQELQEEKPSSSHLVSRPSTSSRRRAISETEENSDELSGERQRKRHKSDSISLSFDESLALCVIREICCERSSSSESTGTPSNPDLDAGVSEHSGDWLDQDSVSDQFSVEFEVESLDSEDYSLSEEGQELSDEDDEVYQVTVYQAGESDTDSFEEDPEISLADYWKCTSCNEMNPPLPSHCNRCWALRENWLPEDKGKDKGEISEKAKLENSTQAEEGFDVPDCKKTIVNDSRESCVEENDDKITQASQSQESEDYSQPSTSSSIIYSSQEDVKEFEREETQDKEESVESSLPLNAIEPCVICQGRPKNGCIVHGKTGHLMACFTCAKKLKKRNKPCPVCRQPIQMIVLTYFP

Tests used:
Experiment in all cases: co-IP; endogenous proteins from total lysates of ROSA KIT D816V cells (control medium) and of HMC-1 cells after 24 h proteasome inhibition (10 nM bortezomib); immunoblotting; negative control with a resin conjugated with an anti-IgG1 antibody
[1] = target: hyper-ubiquitinated SETD2 (human (endogenous in ROSA KIT D816V and HMC-1)) (UniProt Q9BYW2)
[2] = target: SETD2 (human (endogenous in ROSA KIT D816V and HMC-1)) (UniProt Q9BYW2)
[3] = target: serine/threonine-phosphorylated form of SETD2 (human (endogenous in HMC-1)) (UniProt Q9BYW2)

binding [3] | Molecule | also measured
 | MDM2 (from UniProt Q00987 1-491) (enzyme) | binding [1]: binds
 | p53 (from UniProt P04637 1-393) | binding [2]: binds
binds | Aurora kinase A (enzyme, UniProt O14965 1-403) MDRSKENCISGPVKATAPVGGPKRVLVTQQFPCQNPLPVNSGQAQRVLCPSNSSQRIPLQAQKLVSSHKPVQNQKQKQLQATSVPHPVSRPLNNTQKSKQPLPSAPENNPEEELASKQKNEESKKRQWALEDFEIGRPLGKGKFGNVYLAREKQSKFILALKVLFKAQLEKAGVEHQLRREVEIQSHLRHPNILRLYGYFHDATRVYLILEYAPLGTVYRELQKLSKFDEQRTATYITELANALSYCHSKRVIHRDIKPENLLLGSAGELKIADFGWSVHAPSSRRTTLCGTLDYLPPEMIEGRMHDEKVDLWSLGVLCYEFLVGKPPFEANTYQETYKRISRVEFTFPDFVTEGARDLISRLLKHNPSQRPMLREVLEHPWITANSSKPSNCQNKESASKQS | 
binds | phospho-Aurora A (enzyme, UniProt O14965 1-403, phospho-T288) MDRSKENCISGPVKATAPVGGPKRVLVTQQFPCQNPLPVNSGQAQRVLCPSNSSQRIPLQAQKLVSSHKPVQNQKQKQLQATSVPHPVSRPLNNTQKSKQPLPSAPENNPEEELASKQKNEESKKRQWALEDFEIGRPLGKGKFGNVYLAREKQSKFILALKVLFKAQLEKAGVEHQLRREVEIQSHLRHPNILRLYGYFHDATRVYLILEYAPLGTVYRELQKLSKFDEQRTATYITELANALSYCHSKRVIHRDIKPENLLLGSAGELKIADFGWSVHAPSSRRTTLCGTLDYLPPEMIEGRMHDEKVDLWSLGVLCYEFLVGKPPFEANTYQETYKRISRVEFTFPDFVTEGARDLISRLLKHNPSQRPMLREVLEHPWITANSSKPSNCQNKESASKQS | 
